The target in this assay is Recombinant human DGAT2 protein (Homo sapiens, UniProt Q96PD7). Description: Measurement of inhibitory effect against DGAT2 enzyme activity (SPA, Phospholipid FlashPlate, [14C]-TG production). To be noted: concentration inhibiting [14C]-labeled triacyl glycerol (TG) production by 50%; 2 μg DGAT2-membrane protein from Sf-21 cells, 37° C.

By UniProt entry, the sequences of proteins in these tests, tags left out.
UniProt Q96PD7, whole entry: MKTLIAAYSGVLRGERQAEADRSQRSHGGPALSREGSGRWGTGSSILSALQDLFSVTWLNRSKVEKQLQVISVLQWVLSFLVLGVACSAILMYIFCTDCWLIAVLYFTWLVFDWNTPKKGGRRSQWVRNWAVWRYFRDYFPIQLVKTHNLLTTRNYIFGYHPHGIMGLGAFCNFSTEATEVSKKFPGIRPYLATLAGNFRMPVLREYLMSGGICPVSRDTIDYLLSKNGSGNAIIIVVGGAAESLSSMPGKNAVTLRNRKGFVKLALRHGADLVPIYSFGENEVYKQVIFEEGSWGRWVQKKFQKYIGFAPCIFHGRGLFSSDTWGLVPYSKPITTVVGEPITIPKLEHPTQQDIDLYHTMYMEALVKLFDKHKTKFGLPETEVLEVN

Each structure is given as a SMILES string. The structures given here were assigned with low confidence; some may be wrong.

Regarding `CCOc1ccccc1O[C@@H]1CCCN(c2nccc(NC(=O)CCC34CCC(C(=O)O)(CC3)CC4)n2)C1`, the IC50 was 1.2 µM.
Next, `CCOc1ccccc1O[C@@H]1CCCN(c2cncc(NC(=O)C3CCN(c4ccc(C(C)(C)C(=O)O)cc4)CC3)n2)C1`: 1.3 µM.

The values are drawn from patent US12637440B2, “Amide derivative useful as diacylglycerol acyltransferase 2 inhibitor, and use thereof” (LG CHEM, LTD., priority 2019, dated 2026).
